Measurements from PMC3402419.
These are yes or no findings as the source states them, for the method shown. In cells and extracts the contact can be indirect. Some binding calls cover weakened binding; strength is not graded here. Blank lines part the entries; values can stand above or below the substance they belong to.

Protein sequences, listed by entry. Tags and fused reporters are not part of them. Lines headed by an entry give the natural chain unless they say otherwise; changes in a name come on top.
UniProt Q99471: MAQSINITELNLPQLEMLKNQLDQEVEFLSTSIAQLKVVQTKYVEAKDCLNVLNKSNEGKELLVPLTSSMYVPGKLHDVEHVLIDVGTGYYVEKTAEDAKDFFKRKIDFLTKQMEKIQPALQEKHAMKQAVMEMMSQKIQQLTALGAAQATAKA
UniProt Q9D0C1: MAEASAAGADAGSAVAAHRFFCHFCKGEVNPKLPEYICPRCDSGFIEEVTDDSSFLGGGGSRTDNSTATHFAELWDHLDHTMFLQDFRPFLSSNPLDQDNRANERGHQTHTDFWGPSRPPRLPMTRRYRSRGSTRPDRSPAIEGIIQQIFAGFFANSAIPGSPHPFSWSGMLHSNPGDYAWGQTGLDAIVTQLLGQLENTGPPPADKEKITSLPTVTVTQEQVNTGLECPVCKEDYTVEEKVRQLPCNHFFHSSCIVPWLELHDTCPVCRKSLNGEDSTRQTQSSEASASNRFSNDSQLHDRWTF

What was measured:
[1] = target: FLAG-MM-1α expressed in and purified from E. coli (UniProt Q99471); assay: co-IP; 20 μl 35S-Rabring7 (reticulocyte lysate) mixed with 3 μg purified FLAG-MM-1, 4°C, 2.5 h, 20 mM Tris-HCl pH 8.0, 150 mM NaCl, 1 mM EDTA, 0.4% NP40; precipitated with agarose-conjugated anti-FLAG or mouse IgG; fluorography; only the target purified
HA-MM-1α = HA-MM-1α (UniProt Q99471); assay: co-IP; sequential: H1299 transfected with FLAG-c-Myc, T7-Rabring7 and HA-MM-1; first anti-FLAG agarose, elution with FLAG peptide, then anti-HA; Western blot with anti-T7, anti-HA and anti-FLAG
FLAG-tagged MM-1α [2] = target: FLAG-tagged MM-1α (UniProt Q99471); assay: co-IP; cells co-transfected with FLAG-MM-1α, T7-Rabring7 and HA-ubiquitin, 48 h; cytoplasm and nucleus fractionated, extracts precipitated with anti-FLAG; Western blot with anti-HA, anti-FLAG and anti-T7
MBP-Rabring7 = MBP-Rabring7 (UniProt Q9D0C1); assay: pull-down; 20 μl 35S-labeled protein (in vitro translated) with 30 μg MBP-Rabring7 or MBP, 4°C, 2 h, 20 mM Tris-HCl pH 7.4, 150 mM NaCl, 5 mM MgCl2, 0.1% NP40; only the target purified
FLAG-tagged MM-1α [3] = target: FLAG-tagged MM-1α (UniProt Q99471); assay: co-IP; transfected H1299, HEK293 or HEK293T cells, 48 h; about 2 mg cell protein precipitated with agarose-conjugated anti-FLAG (M2) or mouse IgG; Western blot with anti-HA and anti-FLAG

- binding [1]: binds
Substance: 35S-labeled Rabring7 (from UniProt Q9D0C1 1-305)

- binding (HA-MM-1α): binds
- binding (FLAG-tagged MM-1α [2]): binds
Substance: T7-Rabring7 (from UniProt Q9D0C1 1-305)

- binding (MBP-Rabring7): binds
Substance: 35S-labeled MM-1α (from UniProt Q99471-1 1-154)

- binding (FLAG-tagged MM-1α [3]): binds
Substance: HA-Rabring7 (from UniProt Q9D0C1 1-305)
